Assay results published in patent publication US9913838B2, “Methods of treating cancer using compositions comprising perillyl alcohol derivative” (NEONC TECHNOLOGIES INC., priority 2010, dated 2018).
For at least one compound, name, drawing or mass did not settle the structure. Some entries share one result that the patent states for a list of compounds.

Columns and labels:
[1] = tested on: MGMT; experiment: Western blot of MGMT protein levels in MDA-MB-468 cells; assay type: cell-based, human; conditions: MDA-MB-468, 17 hours; in words
Method: In FIG. 21C, MDA-MB-468 cells were treated with the indicated concentrations of TMZ-POH, TMZ, or O6-BG for 17 hours before harvest of cellular lysates. vh.=cells treated with vehicle only.
Total cell lysates were analyzed by Western blot analysis as described in P. Pyrko et al. Downregulation of survivin expression and concomitant induction of apoptosis by celecoxib and its non-cyclooxygenase-2-inhibitory analog, dimethyl-celecoxib (DMC), in tumor cells in vitro and in vivo. Mol Cancer 5 (2006) 19. The primary antibodies were purchased from Cell Signaling Technology (Beverly, Mass.) or Santa Cruz Biotechnology, Inc. (Santa Cruz, Calif.) and used according to the manufacturers' recommendations. All immunoblots were repeated at least once to confirm the results.
The major cytotoxic DNA lesion set by TMZ is methylation of O6-guanine, and it is well known that removal of this methyl group by MGMT leads to rapid degradation of the DNA repair protein.

[2] = tested on: MDA-MB-231 cells; experiment: Determination of drug stability by colony formation assay; assay type: cell-based, human
Method: FIGS. 26A-26C depicts determination of drug stability, where MDA-MB-231 cells were analyzed in colony formation assays. In FIG. 26A, cells were treated with 15 μM TMZ-POH or 30 μM TMZ for 30 min or 1, 2, 4, and 24 hours. Thereafter, drug-containing medium was removed, fresh medium (without drug) was added, and cells remained undisturbed until colony staining 12 days later. The arrows indicate which cells received which supernatant. After 24 hours of incubation, all drug-containing medium was removed, fresh medium (without drug) was added, and cells remained undisturbed until colony staining 12 days later. […] Left panel (untreated): control cells without drug treatment. Middle panel (0-24 h): Cells received 15 μM TMZ-POH or 30 μM TMZ for 24 hours. […]
TMZ is a prodrug, and it is well known that its activation takes place spontaneously in aqueous solution at 37° C. […] For most of these experiments, we used 15 μM TMZ-POH and 30 μM TMZ, because these concentrations are approximately equipotent in the >90% cytotoxicity range (when measured by CFAs and a drug exposure time of 24 hours). […]
To exclude the involvement of cellular enzymes in the turnover of TMZ-POH, we incubated TMZ-POH (and TMZ) in phosphate-buffered saline at 37° C. for one hour (in the absence of cells). After this pre-incubation, TMZ-POH and TMZ were added to cells for 24 hours, and survival was determined by CFA. […]

[3] = tested on: D3H2LN cells implanted into the brains; experiment: Intracranial breast cancer tumor model in nude mice; assay type: in vivo; conditions: 25 mg/kg once daily; in words
Source text: In FIG. 27A, all surviving animals were imaged again on days 21, 28, and 36. […] Arrow labeled Rx indicates the time period of treatment.
All animal protocols were approved by the Institutional Animal Care and Use Committee (IACUC) of University of Southern California, and all rules and regulations were followed during experimentation on animals. Athymic mice (Harlan, Inc., Indianapolis, Ind.) were implanted intracranially with 2×10^5 cells. A subline of MDA-MB-231 cells called D3H2LN was used, which was transfected with the firefly luciferase gene and had been selected for aggressive growth and metastasis in vivo. Ten days after intracranial implantation, efficient tumor take was confirmed in all animals via non-invasive whole-body bioluminescent imaging. For this purpose, mice were intravenously injected with 50 mg/kg D-Luciferin (Perkin Elmer, Waltham, Mass.) and imaged using the Xenogen IVIS-200 Imaging System (Caliper/Perkin Elmer). Images were analyzed by region-of-interest (ROI) analysis using the Living Image software package (Caliper/Perkin Elmer) to quantitate light output (radiance, i.e., photons per second per square centimeter per steradian).
Group 1 was the control group that received vehicle only (45% glycerol, 45% ethanol, 10% DMSO) via subcutaneous injection. Group 2 was the experimental group that received 25 mg/kg TMZ-POH via subcutaneous (s.c.) injection. […]

[4] = tested on: γ-H2AX, activated caspase 7 and cleaved PARP; experiment: DNA damage and cell death marker analysis in MDA-MB-231 cells (Western blot); assay type: cell-based, human; conditions: MDA-MB-231, 20 μM, after 5 days of treatment; in words
Method: FIGS. 25A-25B show DNA damage and cell death marker analysis, where MDA-MB-231 cells were used for Western blot analysis of expression levels for markers of DNA damage (γ-H2AX) and cell death (activated caspase 7 and cleaved PARP). In FIG. 25A, cells were treated with 15 μM TMZ-POH and harvested every 24 hours up to 6 days; control cells remained untreated, or received vehicle (vh.) only. In FIG. 25B, cells were treated with 20 μM of either TMZ-POH, TMZ, or POH individually, or with 20 μM TMZ combined with 20 μM POH (TMZ+POH) and harvested after 24 hours or 5 days; control cells remained untreated, or received vehicle (vh.) only. […]
Total cell lysates were analyzed by Western blot analysis as described in P. Pyrko et al. Downregulation of survivin expression and concomitant induction of apoptosis by celecoxib and its non-cyclooxygenase-2-inhibitory analog, dimethyl-celecoxib (DMC), in tumor cells in vitro and in vivo. […]
It is known that GBM cells treated with physiological concentrations of TMZ (<100 μM) in vitro can survive for several (5-7) days seemingly unaffected before substantial cell death becomes apparent. […] The lysates were analyzed by Western blot for the presence of two apoptosis markers, cleaved (i.e. activated) caspase 7 and cleaved PARP-1 (poly ADP-ribose polymerase-1), along with the DNA damage marker γ-H2AX. […]

[5] = tested on: newly diagnosed glioblastoma; conditions: TMZ added to radiotherapy, cited from earlier work

In the case of Cn1nnc2c(C(N)=O)ncn2c1=O [TMZ, temozolomide, reference compound], the MGMT protein levels [1] is reported as “down-regulates MGMT levels, but the effect is fairly weak”, the “time required to exert maximum toxicity” value ([2]; 15 μM TMZ-POH or 30 μM TMZ) is reported as 4 h and the “bioluminescent imaging after 10-day treatment period” value [3] is reported as “clearly increasing bioluminescence over time”. The “induction of γ-H2AX, activated caspase 7, and cleaved PARP” value [4] was “noticeably weaker effects”, the 5-year overall survival ([5]; versus 1.9 without) was 9.8% and the median survival ([5]; versus 12.1 without) was 14.6 months. The “increase of 5-year overall survival” value [5] was 5 fold.
Molecule C=C(C)[C@@H]1CC=C(COC(=O)NC(=O)c2ncn3c(=O)n(C)nnc23)CC1 [TMZ-POH] has a cytotoxicity range ([2]; 15 μM TMZ-POH and 30 μM TMZ, CFA, drug exposure time of 24 hours) of over 90%.
